Experimental data published in paper PMC4689849.
Results are given in words; binding and its absence hold for the method and conditions named. Binding calls can cover weak binding; strength is not graded here.

B1: galactinol-sucrose galactosyltransferase 2 (GSGT2), 52 amino acid peptide of pGADT7-rec clone 1 (domain or fragment)
chain: GKFGVYSSQHPLQCAVDGIDTDFNYDSETGLTTFSIPVPQEGMYRWSIEIQI
B2: CBL (Calcineurin B-like)-interacting serine/threonine-protein kinase 25 (CIPK25), 88 amino acid peptide of pGADT7-rec clone 4 (domain or fragment)
chain: EIVSKIESAAKSLRFKVGKVKEFKLKLQGMMEGRKGKLAVTAEIYEVAPELAVVEFSKCSGDTFEYVKFFEDDVRPALKDIVWSWQGE

What follows are binders tested against 1R-MYB transcription factor (single repeat MYB; TUS38128) from chickpea (chickpea (Cicer arietinum)) (assay: two-hybrid; co-transformed Y2HGold cells on QDO/X plates with 0, 1, 2, 5, 10, 15 and 20 mM 3-AT; growth and colour as strength of interaction).

Binder | binding
B1 | binds
B2 | binds
SIVKISVKYHTKGDLVLSDAVRDETKAKGTGLLKAIEGYVLANPDY (domain or fragment) [ABA responsive 17 like protein (ABR17-like), 46 amino acid peptide of pGADT7-rec clone 5] | binds

The binders below were run against 1R-MYB transcription factor (single repeat MYB; TUS38128) from chickpea (chickpea (Cicer arietinum)) (assay: two-hybrid; qRT-PCR of the reporter genes HIS3 and ADE2 in co-transformed Y2HGold cells grown in liquid QDO; internal controls TAF10 and UBC6).

Binder | binding
B1 | binds
B2 | binds
SIVKISVKYHTKGDLVLSDAVRDETKAKGTGLLKAIEGYVLANPDY (domain or fragment) [ABA responsive 17 like protein (ABR17-like), 46 amino acid peptide of pGADT7-rec clone 5] | binds

Each binder was assayed against 1R-MYB transcription factor (single repeat MYB; TUS38128) from chickpea (chickpea (Cicer arietinum)) (assay: two-hybrid; co-transformation of Y2HGold with the bait clone (1R-MYB in pGBKT7) and the isolated prey clone (pGADT7-Rec), plated on QDO/X/A; empty bait vector as control).

Binder | binding
B1 | binds
B2 | binds
SIVKISVKYHTKGDLVLSDAVRDETKAKGTGLLKAIEGYVLANPDY (domain or fragment) [ABA responsive 17 like protein (ABR17-like), 46 amino acid peptide of pGADT7-rec clone 5] | binds

The binders below were run against 1R-MYB transcription factor (single repeat MYB; TUS38128) from chickpea (chickpea (Cicer arietinum)) (assay: two-hybrid; library screen by mating: Y187 with drought stressed chickpea root cDNA library in pGADT7-Rec mated with Y2HGold carrying 1R-MYB in pGBKT7; selection on DDO/X/A, colonies patched on QDO/X/A, 30°C, 3-5 days).

Binder | binding
B1 | binds
B2 | binds
SIVKISVKYHTKGDLVLSDAVRDETKAKGTGLLKAIEGYVLANPDY (domain or fragment) [ABA responsive 17 like protein (ABR17-like), 46 amino acid peptide of pGADT7-rec clone 5] | binds
